The target of the test is T1, LUZP1 (endogenous, Eph4 cells) (mouse (endogenous in Eph4)) (UniProt Q8R4U7).
T1 sequence: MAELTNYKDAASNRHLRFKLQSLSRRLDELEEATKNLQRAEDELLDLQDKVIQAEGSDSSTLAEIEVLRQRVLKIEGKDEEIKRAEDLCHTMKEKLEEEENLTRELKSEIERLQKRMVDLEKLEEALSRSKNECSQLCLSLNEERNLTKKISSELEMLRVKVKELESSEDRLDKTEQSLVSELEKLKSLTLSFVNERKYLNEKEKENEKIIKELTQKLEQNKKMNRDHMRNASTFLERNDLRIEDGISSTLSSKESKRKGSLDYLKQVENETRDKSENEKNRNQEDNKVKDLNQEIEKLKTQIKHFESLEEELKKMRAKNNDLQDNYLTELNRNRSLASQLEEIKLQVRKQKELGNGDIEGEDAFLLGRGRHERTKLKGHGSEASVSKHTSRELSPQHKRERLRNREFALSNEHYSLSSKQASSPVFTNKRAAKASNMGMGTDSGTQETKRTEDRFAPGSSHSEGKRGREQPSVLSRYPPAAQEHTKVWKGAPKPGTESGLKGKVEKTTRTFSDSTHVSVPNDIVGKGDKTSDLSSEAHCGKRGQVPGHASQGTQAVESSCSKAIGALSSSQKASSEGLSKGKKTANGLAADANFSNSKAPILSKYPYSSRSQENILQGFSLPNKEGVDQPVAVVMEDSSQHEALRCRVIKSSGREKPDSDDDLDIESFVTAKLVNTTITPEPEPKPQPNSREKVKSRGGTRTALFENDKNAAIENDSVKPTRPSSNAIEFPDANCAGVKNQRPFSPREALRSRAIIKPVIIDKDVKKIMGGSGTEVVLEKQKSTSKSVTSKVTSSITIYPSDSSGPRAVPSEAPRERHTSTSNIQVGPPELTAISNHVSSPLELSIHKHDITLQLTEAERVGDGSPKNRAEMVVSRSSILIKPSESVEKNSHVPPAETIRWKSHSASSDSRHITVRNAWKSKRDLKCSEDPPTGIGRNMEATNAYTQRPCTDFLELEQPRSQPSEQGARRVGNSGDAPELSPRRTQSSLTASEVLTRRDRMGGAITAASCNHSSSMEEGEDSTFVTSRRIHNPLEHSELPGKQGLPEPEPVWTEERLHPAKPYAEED
Description: co-IP; WT Eph4 cells, endogenous proteins, immunoprecipitation with the anti‐LUZP1 antibody, immunoblotting. In general terms: In western blotting, separated proteins are transferred to a membrane and probed.

In PMC7809799, “A microtubule‐LUZP1 association around tight junction promotes epithelial cell apical constriction” (The EMBO Journal, 2020) one finds binding data, which are given here for two substances.

These are yes or no findings as the source states them, for the method shown. In cells and extracts the contact can be indirect. Binding calls can cover weak binding; strength is not graded here.

With “myosin light chain (endogenous, Eph4 cells) (mouse (endogenous in Eph4))”, the binding result is reported as “binds”. Under “α‐tubulin (endogenous, Eph4 cells) (mouse (endogenous in Eph4))” stands “binds”.
